Laboratory results published in US4826844A, “Substituted 1-(aralkyl-piperazinoalkyl) cycloalkanols” (American Home Products Corporation, priority 1987, dated 1989).
At least one structure is not confirmed: it was looked up by name or label, or the drawing left a doubt.

Key:
[1] = system: synaptosomial uptake of norepinephrine; test: inhibition of synaptosomial uptake of norepinephrine (3H-NE); type: biochemical; conditions: synaptosomes
From the text: (§1) The pharmacological test data obtained for a representative number of compounds of this invention in accordance with the standard experimental test procedures disclosed above appear in the following table: […]

[2] = system: synaptosomial uptake of serotonin; test: inhibition of synaptosomial uptake of serotonin (14C-5-HT); type: biochemical; conditions: synaptosomes
From the text: as §1

COc1cccc(C(CCN2CCN(Cc3ccc(Cl)cc3)CC2)C2(O)CCCCC2)c1 (centres unmarked) [Example 5, 1-[3-[4-[(4-Chlorophenyl)methyl]-1-piperazinyl]-1-(3-methoxyphenyl)propyl]cyclohexanol]
Neuronal Uptake NE % Inhibition at 10 μM [1]: 100% | Neuronal Uptake 5HT % Inhibition at 10 μM [2]: 100%
